These are yes or no findings as the source states them, for the method shown.
Molecular target: T1, Active ERK2 (ppERK2), dually phosphorylated on T183 and Y185 (rat (rat ERK2 numbering used throughout)), P63086
T1 chain: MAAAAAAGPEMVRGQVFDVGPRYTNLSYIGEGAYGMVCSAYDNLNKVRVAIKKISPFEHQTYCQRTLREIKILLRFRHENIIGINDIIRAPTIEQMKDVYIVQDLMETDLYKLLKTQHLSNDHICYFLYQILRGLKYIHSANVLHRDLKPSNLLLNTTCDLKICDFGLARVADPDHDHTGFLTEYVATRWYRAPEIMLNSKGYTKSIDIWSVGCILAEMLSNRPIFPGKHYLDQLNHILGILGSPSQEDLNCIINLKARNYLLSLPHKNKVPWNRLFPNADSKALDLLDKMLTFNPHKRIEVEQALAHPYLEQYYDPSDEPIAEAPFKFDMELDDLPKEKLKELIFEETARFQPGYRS
Test: 15N T2 relaxation NMR; 200 μM 2H,13C,15N-labeled ppERK2 with 2 mM Elk_(387-399); 20 mM MES pH 6.4, 150 mM NaCl, 2 mM DTT, 200 μM EDTA; 25 °C, 600 MHz; both purified
Conditions: remark: other sources report otherwise

B1: Active ERK2 (ppERK2), dually phosphorylated on T183 and Y185, P63086 1-358 (enzyme)
chain: MAAAAAAGPEMVRGQVFDVGPRYTNLSYIGEGAYGMVCSAYDNLNKVRVAIKKISPFEHQTYCQRTLREIKILLRFRHENIIGINDIIRAPTIEQMKDVYIVQDLMETDLYKLLKTQHLSNDHICYFLYQILRGLKYIHSANVLHRDLKPSNLLLNTTCDLKICDFGLARVADPDHDHTGFLTEYVATRWYRAPEIMLNSKGYTKSIDIWSVGCILAEMLSNRPIFPGKHYLDQLNHILGILGSPSQEDLNCIINLKARNYLLSLPHKNKVPWNRLFPNADSKALDLLDKMLTFNPHKRIEVEQALAHPYLEQYYDPSDEPIAEAPFKFDMELDDLPKEKLKELIFEETARFQPGYRS
modifications: here or on the partner: phosphothreonine at T183, phosphotyrosine at Y185; phosphothreonine at T183, phosphotyrosine at Y185
  binding: no binding (tested: 200 μM)

From article PMC4459106
